{"source": "paper PMC12040169", "about": "(PLOS Biology, 2025)", "note": "Some of the results follow.", "data": [{"tested_on": "T1, CTL2-GFP (C. trachomatis L2/434/Bu, GFP-expressing)", "T1 construct": "L2/434/Bu, GFP-expressing", "set-up": "species or system HeLa; Intracellular C. trachomatis growth in HeLa cells, bulk GFP fluorescence relative to DMSO", "conditions": "bulk GFP, single well; 28.5 h, 10 µM; inhibitor", "units": {"% of control remaining": "%"}, "values": [{"smiles": "COc1ccccc1NCC(=O)n1nc(C)cc1C", "note": "[CBK263879]", "% of control remaining": 102.76}, {"smiles": "COc1ccc(S(=O)(=O)Nc2nc(C)c(C(=O)Nc3ccc(F)cc3)s2)cc1OC", "note": "[CBK050538]", "% of control remaining": 121.809}, {"smiles": "CC(C)Cn1c(SCC(=O)N2CCNC2=O)nnc1-c1ccco1", "note": "[CBK295175]", "% of control remaining": 127.281}, {"smiles": "CCNC(=O)N1CCC[C@@H](O)[C@H](NC(=O)c2ccc(OC)cc2)C1", "note": "[CBK289066]", "% of control remaining": 105.49}, {"smiles": "CC(C)c1c(N)nc(SCc2ccccc2)nc1Cl", "note": "[CBK016721]", "% of control remaining": 104.758}, {"smiles": "CC(C)N1CCC(N(C)Cc2c[nH]nc2C(C)(C)C)CC1", "note": "[CBK283002]", "% of control remaining": 153.327}, {"smiles": "Nc1ccc(/C=C/c2cccc(C(=O)O)n2)cc1", "note": "[CBK267711]", "% of control remaining": 150.944}, {"smiles": "Cn1c(=O)c2c(nc(CN3CCOCC3)n2CCc2ccccc2)n(C)c1=O", "note": "[CBK269264]", "% of control remaining": 137.435}, {"smiles": "O=S(=O)(c1ccc(C(F)(F)F)cc1Cl)N1CCN(Cc2cccc3cccnc23)CC1", "note": "[CBK063075]", "% of control remaining": 98.5255}, {"smiles": "CC(=O)Nc1cccc(NCc2csc(C3CCCC3)n2)c1", "note": "[CBK304874]", "% of control remaining": 103.639}, {"smiles": "Cc1cccnc1CN1CCN(C(=O)NCCSc2nncn2C)CC1", "note": "[CBK306949]", "% of control remaining": 138.697}, {"smiles": "CC(C)(C)NC(=O)CCn1c(-c2cccnc2)cc2cccnc21", "note": "[CBK282691]", "% of control remaining": 94.5567}, {"smiles": "Cc1ccc(-c2c[nH]c([C@@H]3COCCN3Cc3c[nH]c4ccccc34)n2)cc1", "note": "[CBK289308]", "% of control remaining": 101.173}, {"smiles": "O=C(c1ccc2c(c1)CCO2)N1CCC(S(=O)(=O)c2ccc(-c3ccccc3)cc2)CC1", "note": "[CBK131957]", "% of control remaining": 76.194}, {"smiles": "CC(C)Oc1cccc(CNC(=O)c2ccc(C(C)(C)C)[nH]c2=O)c1", "note": "[CBK281415]", "% of control remaining": 108.186}, {"smiles": "Cc1noc(C)c1NC(=O)c1ccncc1", "note": "[CBK200389]", "% of control remaining": 120.78}, {"smiles": "CC(CC(=O)N1CCC(c2cc3cccnc3[nH]2)CC1)n1ccnc1", "note": "(stereo not shown) [CBK285028]", "% of control remaining": 102.424}, {"smiles": "O=C(O)c1ccc(Cl)c(-c2ccc(/C=N\\Nc3ccc([N+](=O)[O-])cn3)o2)c1", "note": "[CBK263431]", "% of control remaining": 97.6352}, {"smiles": "CC1(COC(=O)N2CCC(OCc3cnc(-c4ccc(S(C)(=O)=O)cc4)cn3)CC2)COC1", "note": "[CBK172009]", "% of control remaining": 104.087}, {"smiles": "CCn1c2ccccc2c2cc(CN(CCN(C)C)Cc3ccccc3)ccc21", "note": "[CBK261924]", "% of control remaining": 104.95}, {"smiles": "Cc1ccc2oc(CN3CCn4cnnc4C3)c(C)c2c1", "note": "[CBK283075]", "% of control remaining": 91.5339}, {"smiles": "CC(C)(C)NC(=O)COc1ccc(CNc2ccc(C(=O)O)c(Cl)c2)cc1", "note": "[CBK287230]", "% of control remaining": 124.765}, {"smiles": "Cc1ccc2c(c1)nc(CNC(=O)NCCc1nc(C)no1)n2C", "note": "[CBK305552]", "% of control remaining": 122.828}, {"smiles": "CCOc1cc(/C=C/c2nc(O)c([N+](=O)[O-])c(=O)[nH]2)ccc1OCC(N)=O", "note": "[CBK267337]", "% of control remaining": 162.913}, {"smiles": "O=C(O)CC1C(=O)NCCN1Cc1c(F)cccc1Cl", "note": "(stereo not shown) [CBK287157]", "% of control remaining": 117.325}, {"smiles": "Cc1ccc2c(c1)N(CC(N)=O)C(=O)CO2", "note": "[CBK270208]", "% of control remaining": 135.509}, {"smiles": "COC1C(O)C(CO)OC1n1cc(F)c(SC)nc1=O", "note": "(stereo not shown) [CBK201267]", "% of control remaining": 146.291}, {"smiles": "COc1ccc(C)cc1C1(CNC(=O)C2CCC(N)C2)CCOCC1", "note": "(stereo not shown) [CBK304312C]", "% of control remaining": 120.657}, {"smiles": "CNC(=S)NCCc1c[nH]c2ccccc12", "note": "[CBK264853]", "% of control remaining": 114.561}, {"smiles": "Cc1noc(C)c1CC(=O)NCc1ccc(CN2CCCCC2)cc1", "note": "[CBK281422]", "% of control remaining": 121.672}, {"smiles": "CS(=O)(=O)N(CC(=O)O)c1cccc2ccccc12", "note": "[CBK262420]", "% of control remaining": 100}, {"smiles": "CC(NC(=O)N(Cc1cccc2ccccc12)C1CCC(N)CC1)c1cccc2ccccc12", "note": "(stereo not shown) [CBK000482C]", "% of control remaining": 54.6899}, {"smiles": "NC(CC(=O)O)c1ccc(OCc2ccccc2)cc1", "note": "(stereo not shown) [CBK286999]", "% of control remaining": 140.306}, {"smiles": "O=C1c2ccc(Oc3cccc(Oc4ccc5c(c4)C(=O)N(CCO)C5=O)c3)cc2C(=O)N1CCO", "note": "[CBK261398]", "% of control remaining": 112.612}, {"smiles": "COCCOCCCN1CCC2(CC1)NC(=O)Cc1ccc(C)cc12", "note": "[CBK040222]", "% of control remaining": 98.3735}, {"smiles": "COc1ccccc1-c1nc(C2CCCN(C(=O)NCCc3cccs3)C2)n2ccccc12", "note": "(stereo not shown) [CBK047163]", "% of control remaining": 116.832}, {"smiles": "O=C(Nc1cccc(F)c1)C(c1ccccc1)N1CCOCC1", "note": "(stereo not shown) [CBK269191]", "% of control remaining": 123.09}, {"smiles": "OCCn1nc(C2CCCC2)nc1CCc1c[nH]c2ccccc12", "note": "[CBK307509]", "% of control remaining": 133.776}, {"smiles": "OCCNc1nc(Nc2ccc(Cl)cc2)nc(N2CCCCC2)n1", "note": "[CBK266638]", "% of control remaining": 161.095}, {"smiles": "O=C1NC(=O)C2(CCN(Cc3ccccc3)CC2)N1", "note": "[CBK005078]", "% of control remaining": 111.747}, {"smiles": "N#CCCNCC1COc2ccccc2O1", "note": "(stereo not shown) [CBK026615]", "% of control remaining": 117.328}, {"smiles": "CC(C)NCC(O)COC1CCC(C(C)(C)C)CC1", "note": "(stereo not shown) [CBK029007C]", "% of control remaining": 158.678}, {"smiles": "O=C1NC(N2CCCC2)=NOc2nnc(Cl)cc21", "note": "[CBK024856]", "% of control remaining": 131.246}, {"smiles": "O=S(=O)(Cc1ccc(Cl)cc1)Nc1cccc2[nH]ccc12", "note": "[CBK153531]", "% of control remaining": 68.5746}, {"smiles": "O=C(NC(C(=O)c1ccccc1)N1CCCCC1)c1ccccc1", "note": "(stereo not shown) [CBK261035]", "% of control remaining": 87.4932}, {"smiles": "CC(C)(CNC(=O)Cn1cnc2ccccc21)N1CCCCC1", "note": "[CBK281879]", "% of control remaining": 135.158}, {"smiles": "COc1ccc(CCN2C(=O)CC(C(=O)O)S/C2=N\\c2ccc(Cl)cc2)cc1OC", "note": "(stereo not shown) [CBK263286]", "% of control remaining": 107.884}, {"smiles": "COc1cc(/C=C(\\C#N)c2nc3ccccc3n2C)cc([N+](=O)[O-])c1O", "note": "[CBK263893]", "% of control remaining": 146.333}, {"smiles": "O=C(CC1SCCNC1=O)NCc1ccccc1", "note": "(stereo not shown) [CBK270202]", "% of control remaining": 93.0342}, {"smiles": "CC(=O)OC(COc1ccc(F)cc1)Cn1cnc2ccccc21", "note": "(stereo not shown) [CBK266162]", "% of control remaining": 131.507}, {"smiles": "CS(=O)(=O)N(CC(=O)N1CCN(C(c2ccccc2)c2ccccc2)CC1)c1cccc(F)c1", "note": "[CBK266330]", "% of control remaining": 155.836}, {"smiles": "CCc1nn2c(=O)cc(CN3C(=O)NC(C)(c4ccco4)C3=O)nc2s1", "note": "(stereo not shown) [CBK305880]", "% of control remaining": 109.519}, {"smiles": "COc1ccc(NS(=O)(=O)c2cccc(Cl)c2C)c(C(=O)NCc2ccccc2)c1", "note": "[CBK113953]", "% of control remaining": 141.337}, {"smiles": "O=C(Cn1c(=O)n(Cc2ccco2)c2ncccc21)N1CCCCC1", "note": "[CBK283862]", "% of control remaining": 140.53}, {"smiles": "CCOC(=O)c1c(NC(=O)c2nn3c(C(F)(F)F)cc(-c4cccs4)nc3c2Cl)sc2c1CCCC2", "note": "[CBK262539]", "% of control remaining": 115.507}, {"smiles": "COC(=O)c1c(NC(=O)c2ccncc2)sc2c1CCC2", "note": "[CBK262637]", "% of control remaining": 100}, {"smiles": "COc1cccc(C(=O)NNC(=O)c2ccc(F)cc2)c1", "note": "[CBK261705]", "% of control remaining": 108.759}, {"smiles": "COc1cc(CNC(C)(C)CO)c(Cl)cc1OC(C)C", "note": "[CBK269542]", "% of control remaining": 128.128}, {"smiles": "CC1CCc2nc(NS(=O)(=O)c3ccccc3)sc2C1", "note": "(stereo not shown) [CBK026915]", "% of control remaining": 80.2617}, {"smiles": "O=C(NCc1ccccn1)c1ccccc1Nc1cccc(C(F)(F)F)c1", "note": "[CBK107252]", "% of control remaining": 116.737}, {"smiles": "O=C(Cn1cc(Br)ccc1=O)NC1CCN(Cc2ccccc2)CC1", "note": "[CBK305671]", "% of control remaining": 121.08}, {"smiles": "FC(F)(F)c1cc(-c2cc(Nc3ccc4[nH]ccc4c3)ncn2)cc(C(F)(F)F)c1", "note": "[CBK090855]", "% of control remaining": 106.563}, {"smiles": "O=C(NCCCN1CCc2ccccc2C1)C1CC1c1ccco1", "note": "(stereo not shown) [CBK305257]", "% of control remaining": 103.343}, {"smiles": "S=C(Nc1ccccc1)c1ccccc1", "note": "[CBK005397]", "% of control remaining": 104.24}, {"smiles": "CC(=O)Nc1cccc(-c2cnc(Nc3ccc(N4CCOCC4)cc3)c3nccn23)c1", "note": "[CBK091235]", "% of control remaining": 170.62}, {"smiles": "c1ccc(C2=NN=C(N3CCOCC3)SC2)cc1", "note": "[CBK006876G]", "% of control remaining": 79.9391}, {"smiles": "CC(C)C(=O)N[C@H]1CC[C@]2(CC1)CNC(=O)c1ccccc1O2", "note": "[CBK281675]", "% of control remaining": 120.362}, {"smiles": "CCCn1ccnc1CNc1nc2c(s1)c(C)nn2C", "note": "[CBK307254]", "% of control remaining": 148.606}, {"smiles": "Clc1ccc(OCC2CCN(Cc3c[nH]cn3)CC2)cc1", "note": "[CBK281543]", "% of control remaining": 136.697}, {"smiles": "COc1ccc2c(c1)C1(CC(=O)N(CC(=O)N(C)C)C1=O)C(=O)N2CCCN(C)S(C)(=O)=O", "note": "(stereo not shown) [CBK075889]", "% of control remaining": 88.9375}, {"smiles": "Cc1c(OCc2ccccc2)ccc2c1OC1(CCN(C(=O)c3ccccn3)CC1)CC2=O", "note": "[CBK156441]", "% of control remaining": 107.748}, {"smiles": "COc1ccc(F)cc1-c1ccc(CC2(C(=O)NC3CCCCC3)CCOCC2)cc1", "note": "[CBK285538]", "% of control remaining": 128.399}, {"smiles": "CCc1nc2cc(NC(=O)CCCn3ccnc3C)ccc2n1CC", "note": "[CBK281609]", "% of control remaining": 109.039}, {"smiles": "Cc1ccc2[nH]c(-c3ccc(NCc4cc5ccc(C)cc5[nH]c4=O)cc3)nc2c1", "note": "[CBK286156]", "% of control remaining": 117.953}, {"smiles": "CN(C)Cc1ccc(C(=O)N2CCc3[nH]c4ccccc4c3C2)cc1", "note": "[CBK281847]", "% of control remaining": 152.301}, {"smiles": "O=C(Nc1ccc(I)cc1C(=O)NCCN1CCOCC1)c1ccc(Cl)cc1Cl", "note": "[CBK266157]", "% of control remaining": 132.609}, {"smiles": "O=C(O)c1cc(NC(=O)C2CCCCC2)cc(C(=O)O)c1", "note": "[CBK286972]", "% of control remaining": 116.027}, {"smiles": "Cc1cc(C)nc(NS(=O)(=O)c2ccc(Nc3ncnc(N)c3[N+](=O)[O-])cc2)n1", "note": "[CBK267217]", "% of control remaining": 87.1316}, {"smiles": "C[C@@H](c1ccccc1)n1c(=O)[nH]c2ncc(-c3ccc(C(=O)NC4CCCC4)cc3)nc21", "note": "[CBK064542]", "% of control remaining": 77.9248}]}]}
